{
  "sequences": {"note": "The chains behind the UniProt entries cited, without tags or fusion partners. Where a name states a change or a piece, a line headed by the entry shows the natural chain unless it says otherwise.", "UniProt Q01432": "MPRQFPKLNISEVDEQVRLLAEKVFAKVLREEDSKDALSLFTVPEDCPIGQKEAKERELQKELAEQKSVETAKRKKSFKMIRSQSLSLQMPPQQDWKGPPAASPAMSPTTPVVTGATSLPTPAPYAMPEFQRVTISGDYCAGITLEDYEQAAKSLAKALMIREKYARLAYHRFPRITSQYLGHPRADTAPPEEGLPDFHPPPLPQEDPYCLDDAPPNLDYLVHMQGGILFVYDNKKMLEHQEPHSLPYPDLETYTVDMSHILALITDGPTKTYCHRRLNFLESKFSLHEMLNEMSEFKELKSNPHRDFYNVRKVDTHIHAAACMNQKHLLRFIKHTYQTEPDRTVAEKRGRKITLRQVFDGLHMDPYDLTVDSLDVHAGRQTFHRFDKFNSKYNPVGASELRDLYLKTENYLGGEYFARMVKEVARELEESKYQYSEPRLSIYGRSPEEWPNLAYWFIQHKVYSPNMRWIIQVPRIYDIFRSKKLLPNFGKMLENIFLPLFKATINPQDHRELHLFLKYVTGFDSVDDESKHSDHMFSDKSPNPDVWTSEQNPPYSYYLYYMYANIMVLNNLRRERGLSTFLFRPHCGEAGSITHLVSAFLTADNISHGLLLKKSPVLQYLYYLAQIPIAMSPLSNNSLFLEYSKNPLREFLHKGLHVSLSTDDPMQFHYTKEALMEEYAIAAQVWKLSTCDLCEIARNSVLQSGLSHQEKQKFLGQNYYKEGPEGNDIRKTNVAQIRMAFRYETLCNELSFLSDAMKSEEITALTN", "UniProt P23526": "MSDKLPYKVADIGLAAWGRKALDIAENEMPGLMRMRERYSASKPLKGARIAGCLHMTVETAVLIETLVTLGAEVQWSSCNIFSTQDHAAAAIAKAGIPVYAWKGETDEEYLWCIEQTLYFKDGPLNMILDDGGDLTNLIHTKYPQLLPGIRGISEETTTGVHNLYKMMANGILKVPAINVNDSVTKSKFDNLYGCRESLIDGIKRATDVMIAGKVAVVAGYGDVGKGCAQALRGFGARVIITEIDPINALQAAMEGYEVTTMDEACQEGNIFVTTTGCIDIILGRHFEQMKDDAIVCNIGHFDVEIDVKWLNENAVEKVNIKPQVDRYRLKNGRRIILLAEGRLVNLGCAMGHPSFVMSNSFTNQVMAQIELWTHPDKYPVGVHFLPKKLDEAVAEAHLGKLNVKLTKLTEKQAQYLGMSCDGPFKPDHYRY", "UniProt P00568": "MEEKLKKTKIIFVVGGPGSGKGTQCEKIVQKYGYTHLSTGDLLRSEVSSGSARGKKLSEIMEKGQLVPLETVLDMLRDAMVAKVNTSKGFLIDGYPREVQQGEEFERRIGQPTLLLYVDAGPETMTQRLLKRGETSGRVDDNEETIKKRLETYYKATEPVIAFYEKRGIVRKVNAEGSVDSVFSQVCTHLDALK", "UniProt Q9H1A4, whole entry, looked up": "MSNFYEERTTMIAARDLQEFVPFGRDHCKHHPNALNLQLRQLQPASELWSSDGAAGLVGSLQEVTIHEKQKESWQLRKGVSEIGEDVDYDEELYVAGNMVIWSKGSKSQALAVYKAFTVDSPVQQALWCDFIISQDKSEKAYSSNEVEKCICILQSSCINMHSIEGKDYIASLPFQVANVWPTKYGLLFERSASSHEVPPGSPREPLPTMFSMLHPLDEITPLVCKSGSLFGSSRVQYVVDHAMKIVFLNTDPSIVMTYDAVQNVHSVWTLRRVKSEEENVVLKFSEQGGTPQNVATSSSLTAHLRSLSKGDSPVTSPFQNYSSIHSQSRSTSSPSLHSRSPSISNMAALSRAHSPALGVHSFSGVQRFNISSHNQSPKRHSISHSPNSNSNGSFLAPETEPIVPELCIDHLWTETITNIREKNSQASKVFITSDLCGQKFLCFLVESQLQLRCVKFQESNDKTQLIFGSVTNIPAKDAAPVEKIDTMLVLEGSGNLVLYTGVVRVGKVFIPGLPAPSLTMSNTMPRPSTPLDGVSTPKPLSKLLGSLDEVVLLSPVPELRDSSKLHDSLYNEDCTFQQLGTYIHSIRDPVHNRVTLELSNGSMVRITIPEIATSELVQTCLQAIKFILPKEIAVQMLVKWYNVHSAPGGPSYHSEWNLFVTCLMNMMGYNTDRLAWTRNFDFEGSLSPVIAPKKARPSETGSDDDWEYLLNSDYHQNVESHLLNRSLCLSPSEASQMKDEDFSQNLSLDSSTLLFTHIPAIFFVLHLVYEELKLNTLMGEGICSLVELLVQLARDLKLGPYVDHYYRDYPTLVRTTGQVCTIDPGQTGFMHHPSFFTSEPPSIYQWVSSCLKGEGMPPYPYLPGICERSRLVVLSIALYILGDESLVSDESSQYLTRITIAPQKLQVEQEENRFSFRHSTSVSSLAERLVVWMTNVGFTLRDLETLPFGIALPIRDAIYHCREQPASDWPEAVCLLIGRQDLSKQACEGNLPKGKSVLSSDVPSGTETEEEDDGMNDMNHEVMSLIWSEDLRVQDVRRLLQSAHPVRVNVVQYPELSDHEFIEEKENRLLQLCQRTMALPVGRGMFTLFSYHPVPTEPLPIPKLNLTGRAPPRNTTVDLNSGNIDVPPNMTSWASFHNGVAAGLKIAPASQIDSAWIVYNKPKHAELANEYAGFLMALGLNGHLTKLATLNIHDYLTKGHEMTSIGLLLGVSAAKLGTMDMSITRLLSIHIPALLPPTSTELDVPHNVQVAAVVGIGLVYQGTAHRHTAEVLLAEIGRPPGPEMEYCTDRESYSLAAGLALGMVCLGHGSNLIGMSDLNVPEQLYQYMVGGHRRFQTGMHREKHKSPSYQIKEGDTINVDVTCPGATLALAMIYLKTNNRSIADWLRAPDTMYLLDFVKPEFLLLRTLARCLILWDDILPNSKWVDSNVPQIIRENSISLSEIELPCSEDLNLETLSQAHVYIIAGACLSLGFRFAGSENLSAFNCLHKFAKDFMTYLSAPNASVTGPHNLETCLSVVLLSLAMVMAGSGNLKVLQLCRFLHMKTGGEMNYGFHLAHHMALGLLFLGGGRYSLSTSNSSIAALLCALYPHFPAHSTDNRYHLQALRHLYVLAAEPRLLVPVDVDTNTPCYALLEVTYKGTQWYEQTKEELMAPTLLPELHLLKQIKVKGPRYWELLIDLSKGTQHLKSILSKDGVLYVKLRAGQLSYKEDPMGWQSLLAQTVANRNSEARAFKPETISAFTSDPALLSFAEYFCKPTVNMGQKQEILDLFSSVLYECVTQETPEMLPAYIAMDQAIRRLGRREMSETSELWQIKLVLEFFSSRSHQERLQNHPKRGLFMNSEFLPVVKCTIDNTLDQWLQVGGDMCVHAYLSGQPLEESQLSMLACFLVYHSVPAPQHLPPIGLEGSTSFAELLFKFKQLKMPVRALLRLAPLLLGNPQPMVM", "UniProt P04075": "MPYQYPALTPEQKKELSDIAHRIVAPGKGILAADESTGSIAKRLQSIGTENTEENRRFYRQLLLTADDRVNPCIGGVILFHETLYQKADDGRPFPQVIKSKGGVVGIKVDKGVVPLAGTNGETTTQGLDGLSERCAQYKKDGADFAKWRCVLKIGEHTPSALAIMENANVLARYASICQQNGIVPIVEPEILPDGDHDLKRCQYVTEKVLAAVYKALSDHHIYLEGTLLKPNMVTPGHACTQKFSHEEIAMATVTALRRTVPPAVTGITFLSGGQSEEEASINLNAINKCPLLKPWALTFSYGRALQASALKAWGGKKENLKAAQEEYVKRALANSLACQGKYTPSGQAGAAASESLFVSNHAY", "UniProt Q96Q42": "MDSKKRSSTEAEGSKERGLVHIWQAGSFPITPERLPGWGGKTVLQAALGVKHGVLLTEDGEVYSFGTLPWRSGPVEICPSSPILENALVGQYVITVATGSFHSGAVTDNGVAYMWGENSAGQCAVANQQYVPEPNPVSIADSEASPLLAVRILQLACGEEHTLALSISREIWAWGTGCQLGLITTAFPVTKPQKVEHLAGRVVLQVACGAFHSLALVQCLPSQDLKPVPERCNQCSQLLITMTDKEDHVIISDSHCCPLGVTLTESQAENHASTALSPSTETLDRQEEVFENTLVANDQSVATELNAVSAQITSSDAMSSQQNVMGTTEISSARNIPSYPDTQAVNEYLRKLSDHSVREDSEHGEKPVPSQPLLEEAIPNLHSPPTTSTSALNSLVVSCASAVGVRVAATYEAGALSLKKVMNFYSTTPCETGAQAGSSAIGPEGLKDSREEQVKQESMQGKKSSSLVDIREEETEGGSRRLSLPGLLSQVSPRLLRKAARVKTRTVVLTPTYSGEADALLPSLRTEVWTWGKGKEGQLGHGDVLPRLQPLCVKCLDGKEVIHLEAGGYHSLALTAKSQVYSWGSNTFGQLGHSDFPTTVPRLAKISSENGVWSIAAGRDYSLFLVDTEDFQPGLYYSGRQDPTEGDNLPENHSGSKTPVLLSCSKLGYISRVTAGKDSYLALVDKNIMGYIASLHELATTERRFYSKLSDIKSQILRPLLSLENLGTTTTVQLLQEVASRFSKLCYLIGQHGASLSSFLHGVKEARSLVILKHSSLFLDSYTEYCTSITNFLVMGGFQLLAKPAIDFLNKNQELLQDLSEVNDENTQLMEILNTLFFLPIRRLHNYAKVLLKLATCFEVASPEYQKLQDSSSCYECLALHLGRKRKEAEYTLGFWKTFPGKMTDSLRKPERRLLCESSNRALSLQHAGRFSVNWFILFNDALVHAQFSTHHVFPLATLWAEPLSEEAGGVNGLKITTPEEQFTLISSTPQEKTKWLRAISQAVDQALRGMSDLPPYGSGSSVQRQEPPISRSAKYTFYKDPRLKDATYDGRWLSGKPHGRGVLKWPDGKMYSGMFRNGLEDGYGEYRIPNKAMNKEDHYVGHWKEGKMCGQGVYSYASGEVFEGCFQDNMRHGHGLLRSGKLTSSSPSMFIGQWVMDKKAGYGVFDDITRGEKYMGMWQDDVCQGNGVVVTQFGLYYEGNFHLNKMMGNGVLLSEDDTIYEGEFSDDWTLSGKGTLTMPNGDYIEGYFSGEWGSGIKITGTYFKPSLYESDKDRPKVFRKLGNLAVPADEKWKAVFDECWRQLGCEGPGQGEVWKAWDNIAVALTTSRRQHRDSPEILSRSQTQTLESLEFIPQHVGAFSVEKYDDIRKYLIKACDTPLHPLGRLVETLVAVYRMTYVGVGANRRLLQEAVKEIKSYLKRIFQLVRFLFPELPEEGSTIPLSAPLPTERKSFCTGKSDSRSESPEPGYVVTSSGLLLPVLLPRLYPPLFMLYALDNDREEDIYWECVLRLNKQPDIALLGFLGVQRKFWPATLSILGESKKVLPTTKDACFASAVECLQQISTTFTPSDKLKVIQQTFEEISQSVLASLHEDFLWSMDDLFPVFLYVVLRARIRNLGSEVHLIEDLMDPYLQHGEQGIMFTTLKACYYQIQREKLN", "UniProt P49189": "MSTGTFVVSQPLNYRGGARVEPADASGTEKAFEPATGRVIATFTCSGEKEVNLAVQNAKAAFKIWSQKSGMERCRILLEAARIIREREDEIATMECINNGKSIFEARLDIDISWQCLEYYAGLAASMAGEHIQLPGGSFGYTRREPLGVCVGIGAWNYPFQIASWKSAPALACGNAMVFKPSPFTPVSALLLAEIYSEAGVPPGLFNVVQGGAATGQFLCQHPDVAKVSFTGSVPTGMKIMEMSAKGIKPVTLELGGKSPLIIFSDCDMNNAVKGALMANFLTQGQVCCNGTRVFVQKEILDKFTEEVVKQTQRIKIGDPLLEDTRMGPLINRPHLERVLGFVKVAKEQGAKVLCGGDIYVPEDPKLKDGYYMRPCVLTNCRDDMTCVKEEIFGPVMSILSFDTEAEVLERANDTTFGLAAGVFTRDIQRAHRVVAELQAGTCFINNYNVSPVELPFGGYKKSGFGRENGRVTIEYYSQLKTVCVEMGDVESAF", "UniProt Q2TAA5": "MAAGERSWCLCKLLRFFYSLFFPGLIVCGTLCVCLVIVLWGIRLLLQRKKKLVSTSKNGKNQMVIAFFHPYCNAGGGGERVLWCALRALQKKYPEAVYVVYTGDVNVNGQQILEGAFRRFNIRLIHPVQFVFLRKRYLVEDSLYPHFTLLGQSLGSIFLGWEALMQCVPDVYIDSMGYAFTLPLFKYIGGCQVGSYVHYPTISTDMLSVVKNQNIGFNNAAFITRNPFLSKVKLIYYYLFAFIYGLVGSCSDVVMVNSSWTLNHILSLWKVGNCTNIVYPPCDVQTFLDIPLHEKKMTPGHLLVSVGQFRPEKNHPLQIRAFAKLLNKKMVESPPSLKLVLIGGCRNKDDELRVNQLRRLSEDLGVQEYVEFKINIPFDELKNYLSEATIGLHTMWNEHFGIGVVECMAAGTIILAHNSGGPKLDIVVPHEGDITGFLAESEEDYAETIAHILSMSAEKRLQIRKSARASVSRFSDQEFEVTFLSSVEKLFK", "UniProt Q9NYG5, whole entry, looked up": "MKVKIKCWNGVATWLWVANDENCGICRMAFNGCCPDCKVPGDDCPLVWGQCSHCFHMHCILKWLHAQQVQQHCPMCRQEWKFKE"},
  "source": "the supplement of paper PMC12067093",
  "about": "“Discovery and optimisation of a covalent ligand for TRIM25 and its application to targeted protein ubiquitination” (Chemical Science, 2025)",
  "note": "The other results are listed elsewhere or left out.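 Note: competitive chemoproteomic profiling in live THP-1 cells with an iodoacetamide desthiobiotin (IA-DTB) probe, comparing probe-labelled peptide intensities in compound-treated cells against DMSO-treated controls.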",
  "data": [
    {"compound": "CC1Cc2ccccc2N1C(=O)C1CCCN(C1)C(=O)CCl (mixture of isomers) [TRIM25 ligand 11 (diastereomer mixture)]", "test": "probe-labelled cysteine peptide fold change vs DMSO (competition) (log2 fold change); higher = less target engagement (more negative = stronger competition)", "details": "10 µM; THP-1; incubation time: 4 h", "values": [
      {"target": "AMPD3_Q01432_691_LSTCDLCEIAR (UniProt Q01432)", "probe-labelled cysteine peptide fold change": 0.0566},
      {"target": "AHCY_P23526_421_QAQYLGMSCDGPFKPDHYRY (UniProt P23526)", "probe-labelled cysteine peptide fold change": -0.136},
      {"target": "AK1_P00568_187_KVNAEGSVDSVFSQVCTHLDALK (UniProt P00568)", "probe-labelled cysteine peptide fold change": -0.17},
      {"target": "AK2_P54819_40_LAENFCVCHLATGDMLR (UniProt P54819)", "probe-labelled cysteine peptide fold change": 0.0915},
      {"target": "AGL_P35573_486_ELICWGDSVK (UniProt P35573)", "probe-labelled cysteine peptide fold change": 0.0108},
      {"target": "AKAP9_Q99996_2877_AVIQCLR (UniProt Q99996)", "probe-labelled cysteine peptide fold change": -0.0679},
      {"target": "AGPAT2_O15120_92_PCVIVSNHQSILDMMGLMEVLPER (UniProt O15120)", "probe-labelled cysteine peptide fold change": 0.37},
      {"target": "ANAPC1_Q9H1A4_437_VFITSDLCGQK (UniProt Q9H1A4)", "probe-labelled cysteine peptide fold change": 0.0148},
      {"target": "AMPD3_Q01432_47_DALSLFTVPEDCPIGQK (UniProt Q01432)", "probe-labelled cysteine peptide fold change": 0.0286},
      {"target": "ANAPC1_Q9H1A4_1074_LLQLCQR (UniProt Q9H1A4)", "probe-labelled cysteine peptide fold change": -0.106},
      {"target": "AHSA1_O95433_56_CEVTEVSK (UniProt O95433)", "probe-labelled cysteine peptide fold change": 0.103},
      {"target": "ALDH3A2_P51648_425_HSFDTFSHQRPCLLK (UniProt P51648)", "probe-labelled cysteine peptide fold change": -0.0226},
      {"target": "AHCY_P23526_195_SKFDNLYGCR (UniProt P23526)", "probe-labelled cysteine peptide fold change": -0.0471},
      {"target": "AHCYL2_Q96HN2_454_QVDIVITCTGNK (UniProt Q96HN2)", "probe-labelled cysteine peptide fold change": 0.145},
      {"target": "ALDOA_P04075_202_CQYVTEK (UniProt P04075)", "probe-labelled cysteine peptide fold change": 0.0126},
      {"target": "ALAD_P13716_162_AGCQVVAPSDMMDGR (UniProt P13716)", "probe-labelled cysteine peptide fold change": -0.0192},
      {"target": "AMPD2_Q01433_263_YMALSLQSFCPTTR (UniProt Q01433)", "probe-labelled cysteine peptide fold change": -0.0514},
      {"target": "ALDH1B1_P30837_179_HEPVGVCGQIIPWNFPLVMQGWK (UniProt P30837)", "probe-labelled cysteine peptide fold change": -0.0495},
      {"target": "ALDH18A1_P54886_674_SLRTEYGDLELCIEVVDNVQDAIDHIHK (UniProt P54886)", "probe-labelled cysteine peptide fold change": -0.215},
      {"target": "AHCYL1_O43865_392_NSCIVCNMGHSNTEIDVTSLR (UniProt O43865)", "probe-labelled cysteine peptide fold change": 0.056},
      {"target": "ALS2_Q96Q42_1454_SFCTGK (UniProt Q96Q42)", "probe-labelled cysteine peptide fold change": 0.0963},
      {"target": "ALCAM_Q13740_270_CLGNGNPPPEEFLFYLPGQPEGIR (UniProt Q13740)", "probe-labelled cysteine peptide fold change": 0.189},
      {"target": "ALDOC_P09972_240_ALSDHHVYLEGTLLKPNMVTPGHACPIK (UniProt P09972)", "probe-labelled cysteine peptide fold change": -0.105},
      {"target": "ALDOA_P04075_202_RCQYVTEK (UniProt P04075)", "probe-labelled cysteine peptide fold change": 0.0665},
      {"target": "ANAPC5_Q9UJX4_670_CQVASAASYDQPK (UniProt Q9UJX4)", "probe-labelled cysteine peptide fold change": -0.0326},
      {"target": "AKAP8_O43823_173_NGSFGGQYSECR (UniProt O43823)", "probe-labelled cysteine peptide fold change": -0.0788},
      {"target": "ALDH16A1_Q8IZ83_39_CLGHYVNGK (UniProt Q8IZ83)", "probe-labelled cysteine peptide fold change": 0.00997},
      {"target": "ANK2_Q01484_60_GGIDINTCNQNGLNALHLAAK (UniProt Q01484)", "probe-labelled cysteine peptide fold change": -0.0102},
      {"target": "AHCTF1_Q8WYP5_107_RTGLLIGLEETEGSVLCLYDLGISK (UniProt Q8WYP5)", "probe-labelled cysteine peptide fold change": -0.0044},
      {"target": "AMFR_Q9UKV5_356+364_KLPCGHLFHNSCLR (UniProt Q9UKV5)", "probe-labelled cysteine peptide fold change": 0.166},
      {"target": "ALDH9A1_P49189_376_DGYYMRPCVLTNCR (UniProt P49189)", "probe-labelled cysteine peptide fold change": 0.146},
      {"target": "AKAP1_Q92667_147_SIPLECPLSSPK (UniProt Q92667)", "probe-labelled cysteine peptide fold change": -0.0299},
      {"target": "AKAP2_Q9Y2D5_10_MEIEVSVAECK (UniProt Q9Y2D5)", "probe-labelled cysteine peptide fold change": -0.0921},
      {"target": "ALDH9A1_P49189_484_TVCVEMGDVESAF (UniProt P49189)", "probe-labelled cysteine peptide fold change": -0.194},
      {"target": "ALG11_Q2TAA5_345_LVLIGGCR (UniProt Q2TAA5)", "probe-labelled cysteine peptide fold change": -0.0253},
      {"target": "ANAPC11_Q9NYG5_73_WLHAQQVQQHCPMCR (UniProt Q9NYG5)", "probe-labelled cysteine peptide fold change": 0.149}
    ]}
  ]
}
